Hit rate of the full screen: of about 220,000 compounds, about 770 (0.35%) were called active. This list was built around the results that the source calls inconclusive (neither active nor inactive); the mix of calls is not that of the screen. Rule as the data show it: active = binding response below about 49% or above about 150%; inconclusive = no clear call, values can overlap the other calls; inactive = in between.
What follows are compounds tested against Guanine nucleotide-binding protein G(o) subunit alpha (Homo sapiens) (UniProt P09471) (assay: RGS7-Galphao binding modulators, primary screen, biochemical, multiplexed bead flow cytometry (AID 1439;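 also: fluorescent Galphao held in activated GDP-AlF4 state binding bead-coupled RGS7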)). Conditions: at 10 µM, actives lie on both sides.

Protein sequences, listed by entry. Tags and fused reporters are not part of them.
UniProt P09471, whole entry, looked up: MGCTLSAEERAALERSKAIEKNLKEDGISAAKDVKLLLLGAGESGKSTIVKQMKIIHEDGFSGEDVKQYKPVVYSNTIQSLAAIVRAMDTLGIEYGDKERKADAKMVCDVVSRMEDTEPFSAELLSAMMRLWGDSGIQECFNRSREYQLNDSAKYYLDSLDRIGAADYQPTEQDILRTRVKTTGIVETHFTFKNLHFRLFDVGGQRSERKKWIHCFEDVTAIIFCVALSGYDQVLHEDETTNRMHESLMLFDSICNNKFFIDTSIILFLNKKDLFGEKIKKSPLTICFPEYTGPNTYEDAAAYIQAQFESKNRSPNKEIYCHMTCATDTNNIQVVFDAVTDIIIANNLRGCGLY

Structure (SMILES) | binding response (% of control)
CC(C)CN1C(=O)C(=Nc2cccnc2)c2ccccc21 | inconclusive: 101%
O=C(CSc1nccc(-c2cccs2)n1)Nc1ccccc1 | inconclusive: 105%
O=[N+]([O-])c1cccc(-c2nc(N3CCOCC3)c3ccccc3n2)c1 | inconclusive: 102%
COc1cc2c(cc1OC)C(c1ccc(N(C)C)cc1)CC(=O)N2 (centres undefined) | inactive: 91.1%
CCOc1ccc(-c2cnc3ccccc3n2)cc1 | inconclusive: 90.3%
N/C(=N\OC(=O)COc1ccccc1)c1ccncc1 | inconclusive: 56.8%
O=c1c2nccnc2[nH]c(=S)n1Cc1ccccc1Cl | inconclusive: 80.5%
COc1ccc(CC(=O)N2CCC(c3ccccc3)C2)cc1 (centres undefined) | inconclusive: 124%
CCOC(=O)c1ccccc1OCc1cc(/C=N/NC(=O)c2ccncc2)ccc1OC | inconclusive: 84.3%
CC(C)c1nc(SCC(=O)N2CC(=O)Nc3ccccc32)c2ccccc2n1 | inconclusive: 96.8%
Cc1ccc(S(=O)(=O)NC(=O)Nc2cccc(C)n2)cc1 | inconclusive: 94%
CCCCNS(=O)(=O)c1ccc(NC(=O)Cc2ccc(OC)cc2)cc1 | inconclusive: 115%
CCOC(=O)c1cnn(-c2ccc(NS(=O)(=O)c3ccc(Cl)cc3)cc2)c1C(F)(F)F | inconclusive: 127%
COc1cc2[nH]c(=O)n(CCC(=O)NC3CCCC3)c(=O)c2cc1OC | inactive: 120%
Cc1oc(S(=O)(=O)N2CCCCC2)cc1NC(=O)Nc1ccccc1 | inconclusive: 88.4%
O=C(CCCc1ccccc1)Nc1nnc(C(F)(F)F)s1 | inconclusive: 126%
C[C@H](CCC(=O)O)[C@H]1CC[C@H]2[C@@H]3C(=O)C[C@@H]4CC(=O)CC[C@]4(C)[C@H]3CC(=O)[C@]12C | inactive: 98%
CC1=C/C(=N\NC(=S)Nc2cccnc2)CC(C)(C)C1 | inconclusive: 107%
COc1ccc2c(c1)sc(=N)n2C | inactive: 107%
N#C/C(=C\Nc1ccc(Cl)cn1)S(=O)(=O)c1ccccn1 | inconclusive: 117%
Cc1cc(N2CCCCC2C)nc(-c2ccccc2O)n1 (centres undefined) | inconclusive: 107%
CC1=CCC2C(=O)N(c3ccc(N4CCOCC4)cc3)C(=O)C2C1 (centres undefined) | inconclusive: 111%
COc1cc2c(cc1OC)C(c1cccs1)N(C(=O)c1ccc(S(=O)(=O)N(C)C)cc1)CC2 (centres undefined) | inconclusive: 140%

Structure (SMILES) | binding response (% of control)
O=C(O)CCNC(=O)C12CC3CC(CC(C3)C1)C2 | inactive: 99.9%
Cc1cc(C)n2nc(C)c(Br)c2n1 | inconclusive: 81.9%
CC(=O)C1=C(O)C(=O)N(CCCN2CCOCC2)C1c1ccccc1[N+](=O)[O-] (centres undefined) | inconclusive: 71.8%
COc1ccc(-c2nc(-n3c(C)c(C(C)=O)c(C(C)=O)c3C)sc2C)cc1 | active: 43.7%
Nc1c(Cl)ncnc1NCCc1ccc(O)cc1 | inconclusive: 109%
Clc1ccccc1Nc1c2c(nc3ncnn13)CCC2 | inactive: 97.2%
O=C(COC(=O)C1CC(=O)N(Cc2ccccc2)C1)Nc1ccc(Cl)cc1F (centres undefined) | inactive: 101%
COC(=O)C1=NN(c2cccc3ccccc23)C2C(=O)N(c3ccccc3OC)C(=O)C12 (centres undefined) | inconclusive: 106%
O=C(/C=C/c1ccccc1Cl)NCc1cccs1 | inactive: 98.7%
CCCCn1cc2c(c1-c1cccc(C)c1)c(=O)n(C)c(=O)n2C | inconclusive: 85.6%
CC(C)(C)NC(=S)NNC(=O)c1cccc(Br)c1 | inconclusive: 86.9%
Cc1ccc(S(C)(=O)=NC(=O)NC(=O)c2c(Cl)cccc2Cl)cc1 (centres undefined) | inconclusive: 61.5%
O=C(O)c1ccccc1C(=O)Nc1ccc(-n2nc(C(F)(F)F)cc2C(F)(F)F)cc1 | inconclusive: 107%
O=C(CN1C(=O)c2ccccc2S1(=O)=O)NCCC1=CCCCC1 | inactive: 89.6%
CC1=CC(C)(C)[N+](C)(C)c2ccccc21 | inactive: 102%
O=Nc1c(O)[nH]c2ccc(F)cc12 | inconclusive: 94.2%
COc1cc(CNC2CCCC2)cc(Cl)c1OCc1ccccc1F | inactive: 99.3%
Cc1cc(N2CCN(C)CC2)nc2ccc(NC(=S)N3CCC4(CC3)OCCO4)cc12 | inconclusive: 91.2%
O=C(Cn1cc[n+](CC(=O)c2ccc(Cl)cc2Cl)c1)c1ccc(Cl)cc1Cl | inconclusive: 88.4%
COc1ccc(C(CCN2CCOCC2)c2c(OC)cc(OC)c3c(C)cc(=O)oc23)cc1 (centres undefined) | inconclusive: 105%
C=C1CCN([C@H](C(=O)NCc2ccc(Cl)c(Cl)c2)C(C)C)S(=O)(=O)c2ccccc21 | inconclusive: 72.5%
Cn1c(=O)[nH]c2c(Cl)nccc21 | inconclusive: 131%
COc1cc(NC(=O)c2cc(Cl)nnc2Cl)cc(OC)c1OC | inconclusive: 104%

Structure (SMILES) | binding response (% of control)
CC(C)C[C@H](NC(=O)c1[nH]cnc1C(=O)Nc1ccc(CNC(=O)OC(C)(C)C)cc1)C(=O)OC(C)(C)C | inconclusive: 78.6%
Cc1snnc1C(=O)NC(=S)Nc1ccccc1 | inconclusive: 94.7%
Cc1ccc(-n2cnc3c(sc4nc(N5CCOCC5)c5c(c43)CCCC5)c2=O)cc1 | inconclusive: 92.5%
Cc1ccc(NC(=O)c2sc(N)nc2-c2ccc([N+](=O)[O-])cc2)cc1C | inconclusive: 20.9%
Cc1cc(SCC(=O)Nc2ncc(Cl)cc2Cl)nc2ccccc12 | inactive: 100%
CCc1cccc(C)c1NC(=O)C1CCN(C(=O)c2ccc([N+](=O)[O-])cc2)CC1 | inactive: 102%
O=C(O)CCC(=O)NCc1c(Cl)cccc1Sc1ccc(Cl)cc1 | inconclusive: 75.2%
COCCCNC(=S)N1CCN(S(=O)(=O)c2ccc(OC)cc2)CC1 | inactive: 97.8%
O=C1NC[C@@H](Cc2ccc(O)cc2)N(CC2CCCCC2)C1=O | inconclusive: 84.3%
COC(=O)c1scc(C#N)c1N/N=C(\C#N)S(=O)(=O)c1ccc(Cl)cc1 | inconclusive: 90.4%
CC(C)(C)OC(=O)N1Cc2cc3ccccc3nc2C1CO (centres undefined) | inconclusive: 66.8%
O=C(C[n+]1cccc(CNC(=O)c2ccc(OC(F)F)cc2)c1)Nc1cccc(C(F)(F)F)c1 | inactive: 104%
COC(=O)[C@@H]1C[C@@H]2CC[C@@H](O)C[C@@H]2N1Cc1ccccc1OS(=O)(=O)c1ccc(C)cc1 | inconclusive: 106%
Cc1ccc(NC(=O)CCC(=O)c2cccs2)c(O)c1 | inconclusive: 89.8%
CCc1ccc(-n2c(=O)c3c(C)c(C)sc3n(CC(=O)NCC3CCCO3)c2=O)cc1 (centres undefined) | inactive: 96.9%
O=C(NC(Cc1ccccc1)C(=O)O)/C(=C/c1ccco1)NC(=O)c1cccc(Br)c1 (centres undefined) | inactive: 102%
CN(C)CCC1c2ccc(Cl)cc2CCc2cccnc21 (centres undefined) (tested in a mixture with another compound) | inconclusive: -5.79%
c1ccc2[nH]c(NN=C3CCCCCC3)nc2c1 | inconclusive: 78.3%
CN(C)C(=N)c1n[nH]nc1SCc1ccccc1 | inconclusive: 112%
O=C(NNC(=S)NCC1CCCO1)c1ccc(S(=O)(=O)N2CCOCC2)cc1 (centres undefined) | inactive: 99%
Cn1c(=S)ccc2ccccc21 | inactive: 108%
O=C(NC(=S)Nc1ccc(Br)cn1)c1cccnc1 | inconclusive: 108%
CSc1ccc(C2C(C#N)=C(N)Oc3c2ccc(=O)c2c(C)oc(C)c32)cc1 (centres undefined) | active: 254% [activator]

Random excerpt: 4 entries already listed
Structure (SMILES) | binding response (% of control)
CC1=CC(C)(C)[N+](C)(C)c2ccccc21 | inactive: 102%
O=C(/C=C/c1ccccc1Cl)NCc1cccs1 | inactive: 98.7%
C[C@H](CCC(=O)O)[C@H]1CC[C@H]2[C@@H]3C(=O)C[C@@H]4CC(=O)CC[C@]4(C)[C@H]3CC(=O)[C@]12C | inactive: 98%
CC1=C/C(=N\NC(=S)Nc2cccnc2)CC(C)(C)C1 | inconclusive: 107%

Carrying on:

Structure (SMILES) | binding response (% of control)
CCNC(=O)COC(=O)c1cccc(Br)c1 | inconclusive: 103%
O=C(NCCCn1ccnc1)C(=O)NCC(c1ccco1)N1CCN(c2ccc(F)cc2)CC1 (centres undefined) | inconclusive: 90.9%
S=c1[nH]c(-c2ccccc2)cn1/N=C/c1cccs1 | inconclusive: 101%
Cc1ccc(C(=O)N/N=C\c2cc(Br)c(Br)o2)cn1 | inconclusive: -784%
COC(=O)c1ccc(CSc2cc(C)c3cccc(C)c3n2)o1 | inconclusive: 97.4%
CC1CCCCC12NC(=S)N(c1ccccc1)N2 (centres undefined) | inconclusive: 90.1%
Cc1ccc(S(=O)(=O)N2CCOCC2)cc1NC(=O)CNCC1CCCCC1 | inconclusive: 112%
CCOC(=O)C1CCCN(c2nc3c(C)cccn3c(=O)c2/C=C(\C#N)C(=O)NCc2ccco2)C1 (centres undefined) | inconclusive: 106%
CN1CCN(c2ccc(Cl)cc2NC(=O)c2nn(-c3ccccc3)c(=O)c3ccccc23)CC1 | inactive: 95%
Cc1ccc(C(=O)OC(C)CN2CCN(C)CC2)cc1 (centres undefined) | inconclusive: 112%
Cn1c(N)c(C(=O)COC(=O)CC(NC(=O)c2ccccc2Cl)c2ccccc2)c(=O)n(C)c1=O (centres undefined) | inactive: 103%
COC(=O)C1=C(C(=O)OC)[C@@H]2Nc3ccccc3[C@@]23C[C@@H](C(=O)OC)N(C(C)=O)C3=N1 | inconclusive: 101%
CCCn1c(N)c(Sc2ccc(C)cc2)c(=O)n(CCC)c1=O | inconclusive: 105%
CC(C)(C)OC(=O)NNC(=O)NC12CC3CC(CC(C3)C1)C2 | inactive: 86.1%
NC(=O)CC(NC(=O)Cc1cccc2ccccc12)c1ccc(NCc2ccc(F)cc2)c([N+](=O)[O-])c1 (centres undefined) | inconclusive: 86.9%
COc1ccccc1N1CCN(C(=O)Cn2nc3n(C)c4ccccc4n3c(=O)c2=O)CC1 | inactive: 100%
CCCn1nnc(NC(=S)NC(=O)/C=C/c2ccc(Cl)cc2)n1 | inconclusive: 108%
COc1cc(/C=N/NC(=O)NC2CCCCC2)cc(OC)c1O | inconclusive: 93.9%
O=C(Nc1nccs1)C(c1ccccc1)N1CCCC1 (centres undefined) | inconclusive: 79.8%
CCCCCN(C(=O)NC(=O)Nc1ccc(C)cc1C)S(C)(=O)=O | inconclusive: 107%

— PubChem BioAssay AID1439 (NMMLSC, 2008)
